Test results: patent US20040077828A1
No constants are given. Whether binding was seen depends on the method and setting. Binding calls can cover weak binding; strength is not graded here.

Target: recombinant soluble TNF-related apoptosis-inducing ligand (TRAIL), PeproTech
Assay: ELISA

- binding: binds
B1: recombinant mouse sFRP-2 (protein, UniProt P97299 25-295, looked up)
chain: LFLFGQPDFSYKRSNCKPIPANLQLCHGIEYQNMRLPNLLGHETMKEVLEQAGAWIPLVMKQCHPDTKKFLCSLFAPVCLDDLDETIQPCHSLCVQVKDRCAPVMSAFGFPWPDMLECDRFPQDNDLCIPLASSDHLLPATEEAPKVCEACKTKNEDDNDIMETLCKNDFALKIKVKEITYINRDTKIILETKSKTIYKLNGVSERDLKKSVLWLKDSLQCTCEEMNDINAPYLVMGQKQGGELVITSVKRWQKGQREFKRISRSIRKLQC
